Values quoted from earlier work as cited in patent US6759420B1, “Arylalkanoyl derivatives, processes for their preparation, their use and pharmaceutical compositions containing them” (Aventis Pharma Deutschland GmbH, priority 1999, dated 2004).
Some results were stated once for a whole list of compounds, not compound by compound.

System: thrombin and factor Xa
Settings: relative to heparin; cited from earlier work

Row | Substance | more potent inhibitors of Xa than of thrombin, differences in vitro
1 | heparin sulfate | 3-30 fold
2 | low molecular weight heparin [LMWH] | 3-30 fold
